Assay results reported in paper PMC9887753.
Results are given in words; binding and its absence hold for the method and conditions named. Binding can be weak; no strength is given. For some of these results: Where a sequence is shown, tags or fusion partners need not be part of it. For some of these results: In cells and extracts the contact can be indirect.

Columns and labels:
[1] = biological target: T1, endogenous perilipin 5 (Plin5) of WT mouse cardiomyocytes (mouse (endogenous in primary cardiomyocytes)) (UniProt Q8BVZ1); experiment: native gel or EMSA; blue-native PAGE and two-dimensional blue-native/SDS-PAGE of homogenates of primary WT and MHC-Plin5 cardiomyocytes (1% Triton X-100), immunoblot for Plin5 and SERCA2
T1 sequence: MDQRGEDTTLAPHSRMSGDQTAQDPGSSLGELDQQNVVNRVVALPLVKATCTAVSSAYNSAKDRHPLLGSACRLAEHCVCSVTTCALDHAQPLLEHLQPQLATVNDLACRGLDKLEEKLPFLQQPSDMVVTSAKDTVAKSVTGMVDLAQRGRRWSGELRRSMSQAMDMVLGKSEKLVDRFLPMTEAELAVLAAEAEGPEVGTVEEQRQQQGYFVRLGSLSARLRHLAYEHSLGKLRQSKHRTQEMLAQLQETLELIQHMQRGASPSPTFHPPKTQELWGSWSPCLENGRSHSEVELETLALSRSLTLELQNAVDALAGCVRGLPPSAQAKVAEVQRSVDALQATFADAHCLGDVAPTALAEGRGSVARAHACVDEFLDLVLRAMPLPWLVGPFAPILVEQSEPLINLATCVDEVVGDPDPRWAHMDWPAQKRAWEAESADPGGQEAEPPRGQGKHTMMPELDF

[2] = biological target: T2, FLAG-tagged mouse perilipin 5 (Plin5), transgene of MHC-Plin5 mice (mouse) (UniProt Q8BVZ1); experiment: as above
T2 sequence: T1 sequence

[3] = biological target: T1, endogenous perilipin 5 (Plin5) of WT mouse cardiomyocytes (mouse (endogenous in primary cardiomyocytes)); experiment: co-IP; immunoprecipitation with perilipin 5 polyclonal antibody (26951-1-AP) on Dynabeads Protein A from lysates of primary WT and MHC-Plin5 cardiomyocytes; non-immune rabbit IgG as control; immunoblot for Plin5 and SERCA2
[4] = biological target: T2, FLAG-tagged mouse perilipin 5 (Plin5), transgene of MHC-Plin5 mice (mouse); experiment: as above
[5] = biological target: T2, FLAG-tagged mouse perilipin 5 (Plin5), transgene of MHC-Plin5 mice (mouse); experiment: co-IP; FLAG immunoprecipitation (Pierce Anti-FLAG Magnetic Agarose) from lysates of primary MHC-Plin5 and WT cardiomyocytes; immunoblot for Plin5 and SERCA2
[6] = biological target: T1, endogenous perilipin 5 (Plin5) of WT mouse cardiomyocytes (mouse (endogenous in primary cardiomyocytes)); experiment: proximity ligation; in situ PLA (NaveniFlex MR Kit) on fixed, permeabilised primary WT and MHC-Plin5 cardiomyocytes with anti-Plin5 (26951-1-AP) and anti-SERCA2 (MA3-910); IgG controls
[7] = biological target: T2, FLAG-tagged mouse perilipin 5 (Plin5), transgene of MHC-Plin5 mice (mouse); experiment: as above

binding [1]: binds
binding [2]: binds
binding [3]: binds
binding [4]: binds
binding [5]: binds
binding [6]: binds
binding [7]: binds
Substance: sarcoplasmic/endoplasmic reticulum Ca2+ ATPase 2 (SERCA2) (from UniProt O55143-2)
